Results: patent US20050107432A1, “Sigma receptor binder containing indanone derivative” (priority 2002, published 2005)
pIC50: −log10 of the molar value. Structures can show the parent of a compound that is named as a salt. At least one structure is not confirmed: it was looked up by name or label, or the drawing left a doubt.

Target: Sigma receptor
Test: Sigma receptor binding assay (3H-DTG, guinea pig brain crude membrane fraction)
Conditions: inhibition of 3H-DTG binding to guinea pig brain crude membrane fraction, 25° C., 1 hour
Procedure: Sigma Receptor Binding Assay
(1) Preparation of Receptor
Ten male guinea pigs (Crj, Hartley, from Charles River Japan, Inc.) (body weight: 234 g to 260 g) were decapitated, exsanguinated and died. The brain was immediately removed, homogenized with ten volumes of 50 mM Tris-HCl (pH 7.4) using a Teflon homogenizer and was centrifuged at a rate of 50000× g at 4° C. for 20 minutes. The washing procedure was repeated once more under the same conditions, and the resulting crude membrane fraction was subjected to the assay.
The filter paper was transferred to a vial for radioactivity measurement, mixed with 5 mL of a liquid scintillation cocktail (Atomlight, from PACKARD), and the radioactivity on the filter was determined by a liquid scintillation counter (Model 1500, from PACKARD) for 2 minutes. The specific binding and the non-specific binding in the absence of the test compound were determined in the same way as above except for using 50% DMSO solution instead of the test compound and using a 100 μM Haloperidol solution instead of the test compound, respectively.
(3) Determination of Inhibition
The inhibitions of the test compound at individual concentrations were determined from the ratio of the specific binding in the presence of the test compound to the specific binding in the absence thereof. […]

COc1cc2c(cc1OC1CCCCC1)CC(=CC1CCN(Cc3ccccc3)CC1)C2=O [Example 19, 1-benzyl-4-[(5-cyclohexyloxy-6-methoxy-1-indanon)-2-ylidene]methylpiperidine hydrochloride]
pIC50: 8.30
